Data as given in patent US20210047373A1, “BETA BARREL POLYPEPTIDES AND METHODS FOR THEIR USE” (UNIVERSITY OF WASHINGTON, priority 2018, published 2021).
Some entries share one result that the patent states for a list of compounds.

Test system: E. coli, yeast, and mammalian cells
Experiment: Confocal imaging of cells expressing mFAPs with DFHBI
Type: cell-based
Conditions: 20 μM DFHBI
Description: To determine whether the designed DFHBI-binding fluorescence-activating proteins function in living cells, we imaged mFAP1- and mFAP2-DFHBI complexes in E. coli, yeast, and mammalian cells by confocal microscopy. […] The quantum yield of mFAP1 and mFAP2 in complex with DFHBI is 2.0% and 2.1% respectively (Table 2).
Confocal image acquisition. Mammalian cell imaging of mFAP1 and mFAP2 was performed in NIH3T3 cells (Flp-In-3T3, Thermo Fisher Scientific, Inc). NIH3T3 cells were cultured in high-glucose DMEM, 4 mM L-glutamine, 10% fetal bovine serum (FBS, Life Technologies, Inc) at 37 degrees Celsius, 5% CO2. Cells were plated at 4×10^4 cells/mL in 35 mm glass-bottomed dishes (Matek, Inc) that were coated with poly-D-lysine. Cells were transfected 24 hours after plating with Lipofectamine™ 3000 (Thermo Fisher Scientific, Inc) at a ratio of 3 μL reagent:1 μL DNA, according to manufacturer's instructions, with […] plasmids of mFAPs or mFAP fusions (1.25 μg mCherry™ plasmid was added to the cytosolic constructs as a transfection control). Right before imaging, cell media was replaced with FluorBrite™ DMEM (Thermo Fisher Scientific, Inc) media supplemented with GlutaMax™ (Thermo Fisher Scientific, Inc) and 10% v/v FBS, and 20 μM DFHBI. […] A white light laser of 488 was used to excite the DFHBI and detected by a HyD detector, over a range of 495-550 nm. […]

Molecule	Time to fluorescence activation following DFHBI addition
mFAP1: SEQ ID NO:33; variant of b11L5F.2 (protein, (1)..(1) optionally absent) MSRAAQLLPGTWQTTMTNEDGQTSQGQMHFQPRSPYTLDVVAQGTISDGRPISGYGKVTVKTDDTLDVDITYPSLGNIKVQGQVTMDSPTQFKFDATTSDGKKLTGTLQRQE	less than 5 minutes
mFAP2: SEQ ID NO:38; variant of b11L5F.1 with 6-residue insertion in the seventh β-turn (protein, (1)..(1) optionally absent) MSRAAQLLPGTWQVTMTNEDGQTSQGQMHFQPRSPYTMDVVAQGTISDGRPISGYGKVTVKTPDTLDVDITYPSLGNIKAQGQITMDSPTQFKFDATTKGAGNFTGRLTGTLQRQE	less than 5 minutes
